PubChem BioAssay AID1053208 – Peter MacCallum Cancer Centre, 2014

- Assay: 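Find knock-downs that sensitise mouse osteosarcoma cells to doxorubicin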 (primary screen)
- System: mouse osteosarcoma cells, early-passage culture from an engineered mouse model of fibroblastic bone tumour
- Reagents: siRNA pool against mouse genes, 40 nM
- Duration: about 120 h (48 h before drug, then 72 h with drug)
- Challenge: doxorubicin 100 nM for 72 h, roughly 30-40% inhibitory dose
- Read-out: 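Viability read as ATP luminescence after 72 h of 100 nM doxorubicin or none, duplicate wells averaged, scaled to non-targeting siRNA, then expressed as robust z-scores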
- Reading the numbers: viability z-score with doxorubicin and doxorubicin viability vs non-targeting: higher = more viable cells under doxorubicin; viability z-score without drug: higher = more viable cells with knock-down alone; z-score of drug to no-drug ratio: higher = less drug sensitisation by knock-down
- Active means: 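Called active if knock-down leaves viability unchanged without drug (z within -2 to 2) but lowers it with doxorubicin (z at or under -2)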
The whole screen tested about 17,000 reagents; below is an unselected part. Over the whole deposit, 788 (4.7%) got an active call. 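Calls rest on z-score classes alone; an extra cut-off of viability at most 70% of control was not applied to them.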

| Gene | combined z-score class | viability z-score with doxorubicin | viability z-score without drug | z-score of drug to no-drug ratio | doxorubicin viability vs non-targeting | call |
| --- | --- | --- | --- | --- | --- | --- |
| Bcdin3d (BCDIN3 domain containing) | no change with or without drug | -1.57 | -0.17 | -1.46 | 0.8 | inactive |
| Bpifa5 (BPI fold containing family A, member 5) | no change with or without drug | -1.35 | 0.51 | -1.57 | 0.82 | inactive |
| Mettl24 (methyltransferase like 24) | no change with or without drug | -0.67 | 0.34 | -0.79 | 0.88 | inactive |
| Tgm3 (transglutaminase 3, E polypeptide) | no change with or without drug | 1.46 | 1.52 | 0.56 | 1.07 | inactive |
| Il17c (interleukin 17C) | no change with or without drug | 0.67 | -0.51 | 1.24 | 1 | inactive |
| Toe1 (target of EGR1, member 1 (nuclear)) | low cell count with and without drug | -2.02 | -3.2 | 0.22 | 0.76 | inactive |
| Prdx4 (peroxiredoxin 4) | no change with or without drug | 1.35 | 0.17 | 1.35 | 1.06 | inactive |
| Drc8 (dynein regulatory complex subunit 8) | low cell count with doxorubicin only | -2.02 | 0.67 | -2.36 | 0.76 | active |
| Pop5 | no change with or without drug | 0.22 | -0.17 | 0.45 | 0.96 | inactive |
| Pira4 (paired-Ig-like receptor A4) | no change with or without drug | 0.22 | 0.34 | 0.11 | 0.96 | inactive |
| Arl10 (ADP-ribosylation factor-like 10) | no change with or without drug | 0.22 | -0.84 | 1.01 | 0.96 | inactive |
| Efcc1 (EF hand and coiled-coil domain containing 1) | no change with or without drug | 0.9 | 0.84 | 0.45 | 1.02 | inactive |
| 1110006O24Rik (RIKEN cDNA 1110006O24 gene) | no change with or without drug | 1.35 | 0 | 1.57 | 1.06 | inactive |
| Pacsin1 (protein kinase C and casein kinase substrate in neurons 1) | low cell count with and without drug | -2.02 | -2.53 | -0.34 | 0.76 | inactive |
| Tmprss7 (transmembrane serine protease 7) | no change with or without drug | -0.67 | -0.17 | -0.45 | 0.88 | inactive |
| Usp1 (ubiquitin specific peptidase 1) | no change with or without drug | 0.45 | 1.01 | -0.11 | 0.98 | inactive |
| St18 (suppression of tumorigenicity 18) | no change with or without drug | -0.67 | -0.51 | -0.22 | 0.88 | inactive |
| 4931406H21Rik (RIKEN cDNA 4931406H21 gene) | no change with or without drug | 1.12 | 1.18 | 0.45 | 1.04 | inactive |
| Szrd1 (SUZ RNA binding domain containing 1) | no change with or without drug | 0 | 0.17 | 0 | 0.94 | inactive |
| Gask1b (golgi associated kinase 1B) | no change with or without drug | 1.8 | 1.35 | 1.01 | 1.1 | inactive |
| Serf1 (small EDRK-rich factor 1) | no change with or without drug | -0.45 | -1.85 | 1.01 | 0.9 | inactive |
| Rac2 (Rac family small GTPase 2) | no change with or without drug | 0.67 | -0.51 | 1.24 | 1 | inactive |
| Rpp30 (ribonuclease P/MRP 30 subunit) | no change with or without drug | -0.45 | -0.51 | 0 | 0.9 | inactive |
| Ier5 (immediate early response 5) | no change with or without drug | -1.12 | -0.84 | -0.56 | 0.84 | inactive |
| Adam9 (ADAM metallopeptidase domain 9) | no change with or without drug | -0.56 | -0.51 | -0.11 | 0.89 | inactive |
| Nefm (neurofilament, medium polypeptide) | no change with or without drug | -0.45 | -0.84 | 0.22 | 0.9 | inactive |
| Nsa2 (NSA2 ribosome biogenesis homolog) | no change with or without drug | 0.45 | 0.34 | 0.34 | 0.98 | inactive |
| Sugp2 (SURP and G patch domain containing 2) | no change with or without drug | 1.12 | -0.17 | 1.46 | 1.04 | inactive |
| Tesk1 (testis specific protein kinase 1) | no change with or without drug | -0.45 | -1.35 | 0.56 | 0.9 | inactive |
| Vmn2r-ps54 (vomeronasal 2, receptor, pseudogene 54) | low cell count without drug only | -1.01 | -2.02 | 0.45 | 0.85 | inactive |

The list goes on (7 carried over from the part before).
| Gene | combined z-score class | viability z-score with doxorubicin | viability z-score without drug | z-score of drug to no-drug ratio | doxorubicin viability vs non-targeting | call |
| --- | --- | --- | --- | --- | --- | --- |
| Ier5 (immediate early response 5) | no change with or without drug | -1.12 | -0.84 | -0.56 | 0.84 | inactive |
| Adam9 (ADAM metallopeptidase domain 9) | no change with or without drug | -0.56 | -0.51 | -0.11 | 0.89 | inactive |
| Nefm (neurofilament, medium polypeptide) | no change with or without drug | -0.45 | -0.84 | 0.22 | 0.9 | inactive |
| Nsa2 (NSA2 ribosome biogenesis homolog) | no change with or without drug | 0.45 | 0.34 | 0.34 | 0.98 | inactive |
| Sugp2 (SURP and G patch domain containing 2) | no change with or without drug | 1.12 | -0.17 | 1.46 | 1.04 | inactive |
| Tesk1 (testis specific protein kinase 1) | no change with or without drug | -0.45 | -1.35 | 0.56 | 0.9 | inactive |
| Vmn2r-ps54 (vomeronasal 2, receptor, pseudogene 54) | low cell count without drug only | -1.01 | -2.02 | 0.45 | 0.85 | inactive |
| Myo1f (myosin IF) | no change with or without drug | 0.67 | -1.01 | 1.57 | 1 | inactive |
| Ngb (neuroglobin) | no change with or without drug | 0.9 | 1.52 | 0 | 1.02 | inactive |
| Vmn1r59 (vomeronasal 1 receptor 59) | no change with or without drug | -0.67 | -0.34 | -0.34 | 0.88 | inactive |
| Hnrnpa1 (heterogeneous nuclear ribonucleoprotein A1) | no change with or without drug | 1.12 | 0.84 | 0.67 | 1.04 | inactive |
| Rhbg (Rh family B glycoprotein) | no change with or without drug | 0.67 | 0 | 0.79 | 1 | inactive |
| Apln (apelin) | no change with or without drug | -0.22 | 0.34 | -0.34 | 0.92 | inactive |
| Mrpl17 (mitochondrial ribosomal protein L17) | no change with or without drug | 0.56 | -1.18 | 1.57 | 0.99 | inactive |
| 1700018F24Rik (RIKEN cDNA 1700018F24 gene) | no change with or without drug | -1.8 | -0.67 | -1.35 | 0.78 | inactive |
| Akr1cl (aldo-keto reductase family 1, member C-like) | high cell count with doxorubicin only | 2.81 | 1.69 | 1.69 | 1.19 | inactive |
| Smarcc2 (SWI/SNF related BAF chromatin remodeling complex subunit C2) | no change with or without drug | 0.45 | 0.84 | 0 | 0.98 | inactive |
| Dtymk (deoxythymidylate kinase) | no change with or without drug | -0.34 | -1.01 | 0.45 | 0.91 | inactive |
| Vps4b (vacuolar protein sorting 4B) | no change with or without drug | -0.67 | 1.35 | -1.46 | 0.88 | inactive |
| Ryr2 (ryanodine receptor 2, cardiac) | no change with or without drug | -0.45 | 0.51 | -0.67 | 0.9 | inactive |
| Cbx2 (chromobox 2) | no change with or without drug | -0.22 | 0.51 | -0.45 | 0.92 | inactive |
| Ddah1 (dimethylarginine dimethylaminohydrolase 1) | no change with or without drug | 1.46 | 0.17 | 1.46 | 1.07 | inactive |
| Rhox2a (reproductive homeobox 2A) | no change with or without drug | -1.69 | 0.51 | -1.91 | 0.79 | inactive |
| Ntn4 (netrin 4) | no change with or without drug | 0.34 | -0.17 | 0.56 | 0.97 | inactive |
| Aldh1a7 (aldehyde dehydrogenase family 1, subfamily A7) | no change with or without drug | -0.67 | -0.84 | 0 | 0.88 | inactive |
| Gria4 (glutamate receptor, ionotropic, AMPA4 (alpha 4)) | no change with or without drug | -0.67 | -1.85 | 0.79 | 0.88 | inactive |
| Baalc (brain and acute leukemia, cytoplasmic) | no change with or without drug | -0.11 | -1.85 | 1.46 | 0.93 | inactive |
| Clgn (calmegin) | no change with or without drug | 0.67 | -0.34 | 1.12 | 1 | inactive |
| Celsr2 (cadherin, EGF LAG seven-pass G-type receptor 2) | no change with or without drug | -0.45 | -1.18 | 0.45 | 0.9 | inactive |
| Dhx57 (DExH-box helicase 57) | no change with or without drug | 0.22 | -0.17 | 0.45 | 0.96 | inactive |
| Fancl (Fanconi anemia, complementation group L) | no change with or without drug | -0.79 | -0.84 | -0.11 | 0.87 | inactive |
| Aifm2 (apoptosis-inducing factor, mitochondrion-associated 2) | no change with or without drug | 1.35 | -0.17 | 1.69 | 1.06 | inactive |
| Zfp35 (zinc finger protein 35) | no change with or without drug | 0.45 | 0.51 | 0.22 | 0.98 | inactive |
| Hmgcl (3-hydroxy-3-methylglutaryl-Coenzyme A lyase) | no change with or without drug | 1.57 | -0.17 | 1.91 | 1.08 | inactive |
| Cd209c (CD209c antigen) | no change with or without drug | 0.22 | 0.51 | 0 | 0.96 | inactive |
| Zc3h7a (zinc finger CCCH type containing 7 A) | no change with or without drug | -0.22 | 1.18 | -0.9 | 0.92 | inactive |
| Baiap2 (brain-specific angiogenesis inhibitor 1-associated protein 2) | no change with or without drug | 1.12 | 0.51 | 0.9 | 1.04 | inactive |
| Mcpt9 (mast cell protease 9) | low cell count with doxorubicin only | -2.14 | -1.18 | -1.46 | 0.75 | active |
| Or5m5 (olfactory receptor family 5 subfamily M member 5) | low cell count without drug only | -0.45 | -2.53 | 1.57 | 0.9 | inactive |
| Plch1 (phospholipase C, eta 1) | low cell count with doxorubicin only | -2.02 | -0.84 | -1.57 | 0.76 | active |
